{
  "source": "paper doi:10.1101/2021.07.23.453529",
  "binders": {"B1": {"name": "DARPin (Designed Ankyrin Repeat Protein) of 3TEL-rigid-DARPin (designed binder)", "chain": "DLGKKLLEAARAGQDDEVRILMANGADVNATDNDGYTPLHLAASNGHLEIVEVLLKNGADVNASDLTGITPLHAAAATGHLEIVEVLLKHGADVNAYDNDGHTPLHLAAKYGHLEIVEVLLKHGADVNAQDKFGKTAFDISIDNGNEDLAEILQKLN"}},
  "target": "DARPin (Designed Ankyrin Repeat Protein) of 3TEL-rigid-DARPin",
  "experiment": "crystal structure",
  "note": "These are yes or no findings as the source states them, for the method shown. Some entries that bind do so weakly or less than the wild type.",
  "data": [
    {"binder": "B1", "values": [
      {"measurement": "binding", "value": "binds weakly"}
    ]}
  ]
}
